Results on 86 sequences are retold here after the supplement of paper PMC3334620.

Over roughly 33,000 sequences, “E-score (-0.5 to 0.5)” has its median near -0.016; the highest 2% begin near 0.3. This is one part of the list.

This assay addresses T1, Yer184c (UniProt P39961).
T1 sequence: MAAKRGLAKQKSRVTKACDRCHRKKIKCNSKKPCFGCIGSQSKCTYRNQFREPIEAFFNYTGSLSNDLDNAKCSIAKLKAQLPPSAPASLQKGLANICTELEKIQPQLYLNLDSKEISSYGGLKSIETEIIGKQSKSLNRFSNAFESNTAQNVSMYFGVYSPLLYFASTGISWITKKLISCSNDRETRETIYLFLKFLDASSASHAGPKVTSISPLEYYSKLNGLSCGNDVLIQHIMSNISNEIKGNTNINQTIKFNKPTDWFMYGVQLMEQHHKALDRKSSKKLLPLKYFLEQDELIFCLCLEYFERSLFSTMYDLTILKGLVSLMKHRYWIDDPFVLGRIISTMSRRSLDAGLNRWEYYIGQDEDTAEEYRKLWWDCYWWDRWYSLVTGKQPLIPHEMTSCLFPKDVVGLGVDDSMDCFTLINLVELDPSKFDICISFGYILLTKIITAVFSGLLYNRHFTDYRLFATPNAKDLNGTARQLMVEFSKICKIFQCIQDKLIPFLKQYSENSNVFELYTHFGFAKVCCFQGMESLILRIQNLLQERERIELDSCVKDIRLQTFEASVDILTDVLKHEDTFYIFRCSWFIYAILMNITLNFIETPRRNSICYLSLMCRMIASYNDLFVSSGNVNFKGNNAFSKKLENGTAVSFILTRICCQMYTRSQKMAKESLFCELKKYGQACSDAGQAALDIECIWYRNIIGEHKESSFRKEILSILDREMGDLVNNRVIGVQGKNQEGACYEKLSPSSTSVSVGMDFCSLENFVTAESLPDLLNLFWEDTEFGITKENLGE
Put plainly: PBM E-score (8-mer binding enrichment) (E-score (-0.5 to 0.5)); higher = stronger / more preferred TF binding. To be noted: protein concentration: 100 nM; construct: GST-full length. In short, it runs like this: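 Yeast transcription factors carrying a GST tag, as full-length proteins or DNA-binding domains, were produced by PURExpress in vitro transcription/translation. About 100-200 nM protein was applied to universal all-10-mer Agilent arrays, double-stranded by primer extension on fresh or once-stripped slides. Bound protein was detected with fluorescent anti-GST, and scans were normalised with masliner. The Universal PBM Analysis Suite gave each ungapped eight-base word, pooled with its reverse complement, an E-score, a modified Wilcoxon-Mann-Whitney statistic.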
In the case of GACCTCAC, the “PBM E-score” value was -0.0799. For the sequence TCCCAGCA, the “PBM E-score” value was determined as 0.0666. With CATTGTGG the figure was -0.109.

For ATTCATTA, the “PBM E-score” value is 0.198. With GAACGTAA the figure was 0.00769; with CCCTAACA, 0.187; with AAGCTGTC, -0.206. With GAGTCTGC the figure was -0.232; with CAGCCTTC, -0.139. In the case of ACGTTGGA, the “PBM E-score” value was -0.0829. With AGTCCCGC the figure was -0.137.

Take GTACTGGA: the “PBM E-score” value was -0.023.

As for AACGAGAT, the “PBM E-score” value is 0.0148. With AGGCCCTC the figure was -0.26; with CCAAGTAC, -0.167. With GATTCTCA the figure was 0.119; with AGAACGTC, -0.0716; with ACCTGCGC, -0.0895. As for AGGGACGC, the “PBM E-score” value was -0.193. With AGGCATCG the figure was -0.0561. Turning to GAAGCGAA, the “PBM E-score” value was 0.0247. On to TCACACGA, for which the “PBM E-score” value amounted to 0.126.

Consider ATGATTAA, for which the “PBM E-score” value was 0.285.

In the case of ACAGACTG, the “PBM E-score” value was -0.152. ACATTCGT: the “PBM E-score” value is -0.0675.

For the sequence AGTATCGG, the “PBM E-score” value is 0.25. With GCCCTGAC the figure was -0.191. With TACACTGA the figure was -0.0327.

Turning to CACCTATA, the “PBM E-score” value is -0.217.

Take AGACGTCG: the “PBM E-score” value is -0.182. With GACGGTAA the figure was 0.143; with CTCCAATA, 0.195.

In the case of CAATTAGG, the “PBM E-score” value turned out to be 0.115.

As to ACAAAGGA, the “PBM E-score” value was determined as 0.012.

With ATCGGCCG, the “PBM E-score” value is 0.388. With CGGAAACC the figure was 0.188. With ACAAATGC the figure was 0.132; with AGAAAACA, 0.199.

For the sequence AAAGGACA, the “PBM E-score” value came to 0.0375. With TAGCCGCA the figure was -0.0301; with GTCATGGA, -0.177. Take GTAAAGAC: the “PBM E-score” value is 0.0705.

On to GTGAGAAC, for which the “PBM E-score” value was -0.0436. With CACTGAGC the figure was -0.0794; with AGGGATCA, -0.107; with ATTAATTC, 0.261. With AGCAACCC the figure was -0.145. With CCCTCAAA the figure was 0.011. Regarding AACGGGGT, the “PBM E-score” value is -0.221. With CAGCTATG the figure was -0.19; with CATGGACA, -0.124; with ACCCGACC, 0.0573. With GATCGACC the figure was 0.0906. With CAGTCATA the figure was -0.0857. On to TAGGGCAA, for which the “PBM E-score” value is -0.0827. As for CCGCTTGA, the “PBM E-score” value is 0.0514.

On to AACAGGCG, for which the “PBM E-score” value was -0.158. With GCGTGGCA the figure was -0.137; with CAGTGTTA, 0.106.

In the case of ATAATGTA, the “PBM E-score” value is -0.00607. With ACAGCGTA the figure was -0.0923. With GAAGGACA the figure was 0.138; with ACTCTACG, -0.101; with GGCCTGAA, -0.0522. With GGAAACCA the figure was -0.0101; with ACTTGTCG, -0.073; with CAATCAAC, 0.0747. Consider AGTTTCTC, for which the “PBM E-score” value was determined as 0.137. With AAATGTAA the figure was 0.223; with CATGTCCA, 0.0395. With CTACCCAA the figure was -0.164; with GTCGCGCA, -0.0795; with CTACAAAG, 0.116. As to AGTGACAG, the “PBM E-score” value was found to be 0.055. Consider GATCAGAA, for which the “PBM E-score” value is -0.147. With AAGGGCAA the figure was 0.0626; with CATTCAGC, 0.056; with ATACCCCG, -0.0236. As for ATTATTGG, the “PBM E-score” value turned out to be 0.0735. Take GCTAAAGC: the “PBM E-score” value was -0.0627. With CCTAGATC the figure was -0.28; with ACTCTGCA, -0.0169; with CAGATCGG, 0.103. With GCGAGCCA the figure was -0.109; with CGTACAGC, -0.0968. CCCGTAAG: the “PBM E-score” value was -0.117.
